Measured values from US20160369115A1, “POLARIZING PLATE COMPOSITION, POLARIZING PLATE PROTECTIVE FILM, POLARIZER, POLARIZING PLATE, LIQUID CRYSTAL DISPLAY DEVICE, AND COMPOUND USED IN THE LIQUID CRYSTAL DISPLAY DEVICE” (FUJIFILM Corporation, priority 2014, published 2016).

Columns and labels:
[1] = Bleed-out properties in polarizer (haze evaluation); conditions: haze of polarizing plate; additive in polarizer, added amount 1.0 per 100 parts by mass of polyvinyl alcohol resin
[2] = Bleed-out properties in adhesive layer (haze evaluation); conditions: additive in adhesive layer, added amount 10.0 per 100 parts by mass of the polyvinyl alcohol resin, film thickness 5 μm
[3] = Evaluation of durability of polarizing plate, additive in adhesive layer (Example 3); conditions: added amount 10.0 per 100 parts by mass of the polyvinyl alcohol resin, film thickness 5 μm; for Durability of polarizer: amount of change of orthogonal transmittance (%) 60° C., 95%, 500 hours / Durability of polarizer: amount of change of orthogonal transmittance (%) 60° C., 95%, 1,000 hours / Durability of polarizer: amount of change of orthogonal transmittance (%) 80° C., Dry 500 hours / Durability of polarizer: amount of change of orthogonal transmittance (%) 80° C., Dry, 1,000 hours: 410 nm
[4] = Evaluation of durability of polarizing plate, additive in polarizer (Example 2); conditions: added amount 1.0 per 100 parts by mass of polyvinyl alcohol resin, 410 nm

Structure (SMILES)	Bleed out [1]	Bleed out [2]	Durability of polarizer: amount of change of degree of polarization (%) 60° C., 95%, 500 hours [3]	Durability of polarizer: amount of change of degree of polarization (%) 60° C., 95%, 1,000 hours [3]	Durability of polarizer: amount of change of degree of polarization (%) 80° C., Dry, 500 hours [3]	Durability of polarizer: amount of change of degree of polarization (%) 80° C., Dry, 1,000 hours [3]	Durability of polarizer: amount of change of orthogonal transmittance (%) 60° C., 95%, 500 hours [3]	Durability of polarizer: amount of change of orthogonal transmittance (%) 60° C., 95%, 1,000 hours [3]	Durability of polarizer: amount of change of orthogonal transmittance (%) 80° C., Dry 500 hours [3]	Durability of polarizer: amount of change of orthogonal transmittance (%) 80° C., Dry, 1,000 hours [3]	Durability of polarizer: amount of change of degree of polarization (%) 60° C., 95%, 500 hours [4]	Durability of polarizer: amount of change of degree of polarization (%) 60° C., 95%, 1,000 hours [4]	Durability of polarizer: amount of change of degree of polarization (%) 80° C., Dry, 500 hours [4]	Durability of polarizer: amount of change of degree of polarization (%) 80° C., Dry, 1,000 hours [4]	Durability of polarizer: amount of change of orthogonal transmittance (%) 60° C., 95%, 500 hours [4]	Durability of polarizer: amount of change of orthogonal transmittance (%) 60° C., 95%, 1,000 hours [4]	Durability of polarizer: amount of change of orthogonal transmittance (%) 80° C., Dry 500 hours [4]	Durability of polarizer: amount of change of orthogonal transmittance (%) 80° C., Dry, 1,000 hours [4]
O=C(Oc1c(Cc2ccccc2S(=O)(=O)[O-])c(=O)n(-c2ccccc2)c(=O)n1-c1ccccc1)OC1c2ccccc2-c2ccccc21.[Na+] [Example compound H]	A (The haze was less than 0.3%.)	A (The haze was less than 0.3%.)	A+ (The amount of change of the degree of polarization before and after the elapse of time was less than 0.05%.)	A+ (The amount of change of the degree of polarization before and after the elapse of time was less than 1.0%.)	A+ (The amount of change of the degree of polarization before and after the elapse of time was less than 0.05%.)	A+ (The amount of change of the degree of polarization before and after the elapse of time was less than 0.1%.)	A+ (The amount of change of the orthogonal transmittance before and after the elapse of time was less than 0.1%.)	A+ (The amount of change of the orthogonal transmittance before and after the elapse of time was less than 0.5%.)	A+ (The amount of change of the orthogonal transmittance before and after the elapse of time was less than 0.05%.)	A+ (The amount of change of the orthogonal transmittance before and after the elapse of time was less than 0.1%.)	A+ (The amount of change of the degree of polarization before and after the elapse of time was less than 0.05%.)	A+ (The amount of change of the degree of polarization before and after the elapse of time was less than 1.0%.)	A+ (The amount of change of the degree of polarization before and after the elapse of time was less than 0.05%.)	A+ (The amount of change of the degree of polarization before and after the elapse of time was less than 0.1%.)	A+ (The amount of change of the orthogonal transmittance before and after the elapse of time was less than 0.1%.)	A+ (The amount of change of the orthogonal transmittance before and after the elapse of time was less than 0.5%.)	A+ (The amount of change of the orthogonal transmittance before and after the elapse of time was less than 0.05%.)	A+ (The amount of change of the orthogonal transmittance before and after the elapse of time was less than 0.1%.)
COC(=O)Oc1[nH]c(=O)n(Cc2ccc(F)c(F)c2)c(=O)c1Cc1ccc(S(=O)(=O)[O-])cc1S(=O)(=O)[O-].[Na+].[Na+] [Example compound AAS]	A (The haze was less than 0.3%.)	A (The haze was less than 0.3%.)	A (The amount of change of the degree of polarization before and after the elapse of time was equal to or greater than 0.05% and less than 2.0%.)	A (The amount of change of the degree of polarization before and after the elapse of time was equal to or greater than 1.0% and less than 4.0%.)	A (The amount of change of the degree of polarization before and alter the elapse of time was equal to or greater than 0.05% and less than 1.0%.)	A (The amount of change of the degree of polarization before and after the elapse of time was equal to or greater than 0.1% and less than 2.0%.)	A (The amount of change of the orthogonal transmittance before and after the elapse of time was equal to or greater than 0.1% and less than 0.4%.)	A (The amount of change of the orthogonal transmittance before and after the elapse of time was equal to or greater than 0.5% and less than 1.0%.)	A (The amount of change of the orthogonal transmittance before and after the elapse of time was equal to or greater than 0.05% and less than 0.1%.)	A (The amount of change of the orthogonal transmittance before and after the elapse of time was equal to or greater than 0.1% and less than 0.3%.)	A (The amount of change of the orthogonal transmittance before and after the elapse of time was equal to or greater than 0.05% and less than 2.0%.)	A (The amount of change of the degree of polarization before and after the elapse of time was equal to or greater than 1.0% and less than 4.0%.)	A (The amount of change of the degree of polarization before and after the elapse of time was equal to or greater than 0.05% and less than 1.0%.)	A (The amount of change of the degree of polarization before and after the elapse of time was equal to or greater than 0.1% and less than 2.0%.)	A+ (The amount of change of the orthogonal transmittance before and after the elapse of time was less than 0.1%.)	A (The amount of change of the orthogonal transmittance before and after the elapse of time was equal to or greater than 0.5% and less than 1.0%.)	A (The amount of change of the orthogonal transmittance before and after the elapse of time was equal to or greater than 0.05% and less than 0.1%.)	A (The amount of change of the orthogonal transmittance before and after the elapse of time was equal to or greater than 0.1% and less than 0.3%.)
